# For at least one compound, name, drawing or mass did not settle the structure.
# What was measured:
# [1] = system: pCAMKIIg, phosphorylated c-Myc, total c-Myc, phosphorylated STAT3 (s727); assay: Western blotting of CAMKII and c-Myc axis in DHL cells; assay type: cell-based; settings: DOGKIT, DHL-6 and VAL cells, 24 h, FIGS. 3A-3C
# [2] = system: five DHL cell lines (NU-DHL-1, SU-DHL-6, LY19, DOGKIT and VAL); assay: MTS cell viability assay in double-hit lymphoma (DHL) cell lines; assay type: cell-based; settings: increasing concentrations, MTS at 24 h, normalized to vehicle control; FIGS. 2C-2D
smiles,measurement,setting,value
"COc1cc2c3cc1Oc1c(OC)c(OC)cc4c1[C@@H](Cc1ccc(O)c(c1)Oc1ccc(cc1)C[C@@H]3N(C)CC2)N(C)CC4 [BBM, berbamine]","Protein levels of pCAMKIIg, phosphorylated c-Myc, total c-Myc and phosphorylated STAT3 (s727)",[1],decreased in a dose-dependent manner
same,Cell viability of DHL cell lines,[2],decreased cell viability in a dose-dependent manner
